Experimental data published in the supplement of paper PMC10849652.
The other results are listed elsewhere or left out.

By UniProt entry, the sequences of proteins in these tests, tags left out. Where a name states a change or a piece, a line headed by the entry shows the natural chain unless it says otherwise.
UniProt Q9NVU0: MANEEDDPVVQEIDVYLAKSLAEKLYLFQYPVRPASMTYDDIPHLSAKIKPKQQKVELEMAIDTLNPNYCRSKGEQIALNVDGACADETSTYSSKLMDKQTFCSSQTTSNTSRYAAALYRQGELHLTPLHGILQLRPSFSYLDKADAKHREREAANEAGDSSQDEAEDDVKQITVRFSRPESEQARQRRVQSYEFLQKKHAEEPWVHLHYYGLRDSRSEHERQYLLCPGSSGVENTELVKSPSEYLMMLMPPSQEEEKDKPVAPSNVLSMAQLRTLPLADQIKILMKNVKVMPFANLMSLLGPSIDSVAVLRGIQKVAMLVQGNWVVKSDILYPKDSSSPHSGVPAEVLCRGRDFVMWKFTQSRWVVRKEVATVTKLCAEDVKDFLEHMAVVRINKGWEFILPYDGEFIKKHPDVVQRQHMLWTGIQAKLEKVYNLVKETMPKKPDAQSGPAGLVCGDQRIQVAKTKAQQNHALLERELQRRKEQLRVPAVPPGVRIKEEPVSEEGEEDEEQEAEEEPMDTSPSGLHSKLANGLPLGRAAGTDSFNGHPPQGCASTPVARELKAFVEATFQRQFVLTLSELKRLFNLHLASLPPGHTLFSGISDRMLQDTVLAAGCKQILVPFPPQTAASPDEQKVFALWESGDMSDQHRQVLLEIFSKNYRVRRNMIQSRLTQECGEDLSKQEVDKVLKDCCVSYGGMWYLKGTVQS
UniProt O60664: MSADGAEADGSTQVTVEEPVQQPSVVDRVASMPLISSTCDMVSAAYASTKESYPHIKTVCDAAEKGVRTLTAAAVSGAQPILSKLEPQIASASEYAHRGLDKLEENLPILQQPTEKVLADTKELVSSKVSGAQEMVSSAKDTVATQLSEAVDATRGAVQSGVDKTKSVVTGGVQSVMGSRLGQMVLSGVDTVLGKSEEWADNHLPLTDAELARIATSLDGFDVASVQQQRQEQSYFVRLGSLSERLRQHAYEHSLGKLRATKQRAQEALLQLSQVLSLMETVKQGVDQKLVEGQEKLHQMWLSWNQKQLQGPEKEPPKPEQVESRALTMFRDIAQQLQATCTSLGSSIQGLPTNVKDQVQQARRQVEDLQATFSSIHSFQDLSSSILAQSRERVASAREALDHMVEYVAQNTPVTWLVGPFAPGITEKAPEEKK
UniProt Q9NR33: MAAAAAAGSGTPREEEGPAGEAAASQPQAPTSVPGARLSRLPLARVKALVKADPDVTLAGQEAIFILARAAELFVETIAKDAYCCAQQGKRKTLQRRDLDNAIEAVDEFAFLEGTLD
UniProt Q9H1D9: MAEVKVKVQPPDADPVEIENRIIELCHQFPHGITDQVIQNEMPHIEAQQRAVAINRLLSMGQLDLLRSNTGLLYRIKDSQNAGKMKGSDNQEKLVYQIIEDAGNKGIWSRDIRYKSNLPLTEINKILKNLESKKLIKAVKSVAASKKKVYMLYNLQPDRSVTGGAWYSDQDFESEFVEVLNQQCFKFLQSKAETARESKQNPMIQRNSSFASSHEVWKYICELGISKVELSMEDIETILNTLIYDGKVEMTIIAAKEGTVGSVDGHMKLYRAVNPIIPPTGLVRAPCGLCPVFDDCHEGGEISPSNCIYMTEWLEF
UniProt O15160, whole entry, looked up: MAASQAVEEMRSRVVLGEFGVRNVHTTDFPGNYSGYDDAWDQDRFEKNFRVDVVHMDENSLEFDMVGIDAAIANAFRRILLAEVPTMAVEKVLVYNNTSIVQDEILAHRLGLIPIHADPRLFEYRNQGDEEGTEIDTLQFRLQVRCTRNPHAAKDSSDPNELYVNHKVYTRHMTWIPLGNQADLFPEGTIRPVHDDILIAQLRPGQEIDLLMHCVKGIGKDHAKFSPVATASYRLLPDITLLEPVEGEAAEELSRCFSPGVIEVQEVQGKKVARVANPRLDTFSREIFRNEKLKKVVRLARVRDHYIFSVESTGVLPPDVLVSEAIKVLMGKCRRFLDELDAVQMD
UniProt Q8IWE5: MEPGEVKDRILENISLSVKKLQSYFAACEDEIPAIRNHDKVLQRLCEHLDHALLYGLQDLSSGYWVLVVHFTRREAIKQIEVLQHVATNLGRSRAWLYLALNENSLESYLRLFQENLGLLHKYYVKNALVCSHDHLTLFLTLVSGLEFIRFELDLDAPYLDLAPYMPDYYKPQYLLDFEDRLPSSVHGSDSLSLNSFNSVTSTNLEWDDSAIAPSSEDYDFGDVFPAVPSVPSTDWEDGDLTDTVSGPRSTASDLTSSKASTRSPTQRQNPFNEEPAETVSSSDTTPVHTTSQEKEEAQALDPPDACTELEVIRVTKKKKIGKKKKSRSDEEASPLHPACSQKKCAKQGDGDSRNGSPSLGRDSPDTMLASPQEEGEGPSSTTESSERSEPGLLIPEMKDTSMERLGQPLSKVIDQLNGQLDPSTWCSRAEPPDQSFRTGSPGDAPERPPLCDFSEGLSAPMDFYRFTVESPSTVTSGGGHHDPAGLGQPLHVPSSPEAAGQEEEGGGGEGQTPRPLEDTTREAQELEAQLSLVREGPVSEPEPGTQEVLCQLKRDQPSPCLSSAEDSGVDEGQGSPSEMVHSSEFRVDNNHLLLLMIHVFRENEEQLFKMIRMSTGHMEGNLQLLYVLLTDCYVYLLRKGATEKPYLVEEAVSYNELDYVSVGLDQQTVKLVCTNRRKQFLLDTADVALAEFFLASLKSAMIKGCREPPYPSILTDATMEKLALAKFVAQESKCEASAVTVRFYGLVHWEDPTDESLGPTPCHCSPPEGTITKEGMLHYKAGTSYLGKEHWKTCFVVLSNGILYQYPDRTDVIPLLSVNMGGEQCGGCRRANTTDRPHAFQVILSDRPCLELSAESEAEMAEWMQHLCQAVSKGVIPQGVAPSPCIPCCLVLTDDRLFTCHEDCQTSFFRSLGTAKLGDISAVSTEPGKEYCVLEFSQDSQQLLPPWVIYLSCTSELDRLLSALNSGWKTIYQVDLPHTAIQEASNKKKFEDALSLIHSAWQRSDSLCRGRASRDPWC
UniProt P51805: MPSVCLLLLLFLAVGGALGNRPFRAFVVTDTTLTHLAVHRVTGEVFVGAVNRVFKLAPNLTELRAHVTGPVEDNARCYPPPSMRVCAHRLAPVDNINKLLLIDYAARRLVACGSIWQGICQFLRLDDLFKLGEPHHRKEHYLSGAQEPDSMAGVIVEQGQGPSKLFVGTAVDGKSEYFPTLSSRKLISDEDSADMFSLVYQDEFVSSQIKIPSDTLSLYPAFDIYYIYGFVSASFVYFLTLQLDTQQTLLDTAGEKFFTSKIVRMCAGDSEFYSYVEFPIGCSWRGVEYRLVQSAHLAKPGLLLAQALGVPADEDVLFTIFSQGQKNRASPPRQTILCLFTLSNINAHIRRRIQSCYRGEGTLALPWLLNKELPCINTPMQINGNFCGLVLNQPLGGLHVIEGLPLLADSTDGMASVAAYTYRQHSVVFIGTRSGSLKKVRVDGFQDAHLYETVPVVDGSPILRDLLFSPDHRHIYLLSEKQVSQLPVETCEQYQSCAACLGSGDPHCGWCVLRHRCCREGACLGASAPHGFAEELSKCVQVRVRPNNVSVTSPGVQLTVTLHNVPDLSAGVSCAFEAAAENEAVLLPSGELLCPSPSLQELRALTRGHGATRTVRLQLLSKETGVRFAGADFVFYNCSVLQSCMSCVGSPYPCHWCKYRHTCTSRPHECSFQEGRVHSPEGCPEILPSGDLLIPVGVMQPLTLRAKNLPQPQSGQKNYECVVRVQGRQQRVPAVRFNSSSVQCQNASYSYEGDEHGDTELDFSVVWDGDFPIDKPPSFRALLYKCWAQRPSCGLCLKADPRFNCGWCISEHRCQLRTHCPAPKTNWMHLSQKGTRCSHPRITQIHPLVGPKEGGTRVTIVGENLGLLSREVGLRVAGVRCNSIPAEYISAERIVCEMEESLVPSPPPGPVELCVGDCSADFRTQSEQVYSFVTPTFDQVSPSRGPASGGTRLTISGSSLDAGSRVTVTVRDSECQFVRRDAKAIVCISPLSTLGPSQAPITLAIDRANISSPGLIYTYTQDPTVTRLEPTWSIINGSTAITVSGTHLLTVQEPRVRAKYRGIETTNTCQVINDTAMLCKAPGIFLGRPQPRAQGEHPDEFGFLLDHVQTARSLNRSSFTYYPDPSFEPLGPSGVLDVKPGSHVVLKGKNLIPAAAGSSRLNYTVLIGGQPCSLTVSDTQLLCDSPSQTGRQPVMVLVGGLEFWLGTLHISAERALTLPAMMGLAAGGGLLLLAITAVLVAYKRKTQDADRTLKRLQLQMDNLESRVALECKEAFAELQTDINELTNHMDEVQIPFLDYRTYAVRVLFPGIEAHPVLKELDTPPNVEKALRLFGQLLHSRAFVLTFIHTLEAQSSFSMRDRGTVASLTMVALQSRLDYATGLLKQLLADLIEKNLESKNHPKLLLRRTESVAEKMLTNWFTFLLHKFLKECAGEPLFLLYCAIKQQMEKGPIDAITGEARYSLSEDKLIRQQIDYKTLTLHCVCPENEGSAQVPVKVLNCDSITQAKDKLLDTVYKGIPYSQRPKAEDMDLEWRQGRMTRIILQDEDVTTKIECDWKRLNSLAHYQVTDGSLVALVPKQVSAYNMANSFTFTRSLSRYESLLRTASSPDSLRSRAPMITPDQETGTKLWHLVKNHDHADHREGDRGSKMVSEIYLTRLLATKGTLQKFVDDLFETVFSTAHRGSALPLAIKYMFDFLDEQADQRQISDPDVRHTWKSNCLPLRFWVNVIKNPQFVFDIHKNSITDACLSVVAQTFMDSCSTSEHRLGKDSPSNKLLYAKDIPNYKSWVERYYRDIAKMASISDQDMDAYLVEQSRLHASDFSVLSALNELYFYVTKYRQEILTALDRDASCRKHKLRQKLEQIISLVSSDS
UniProt O43660: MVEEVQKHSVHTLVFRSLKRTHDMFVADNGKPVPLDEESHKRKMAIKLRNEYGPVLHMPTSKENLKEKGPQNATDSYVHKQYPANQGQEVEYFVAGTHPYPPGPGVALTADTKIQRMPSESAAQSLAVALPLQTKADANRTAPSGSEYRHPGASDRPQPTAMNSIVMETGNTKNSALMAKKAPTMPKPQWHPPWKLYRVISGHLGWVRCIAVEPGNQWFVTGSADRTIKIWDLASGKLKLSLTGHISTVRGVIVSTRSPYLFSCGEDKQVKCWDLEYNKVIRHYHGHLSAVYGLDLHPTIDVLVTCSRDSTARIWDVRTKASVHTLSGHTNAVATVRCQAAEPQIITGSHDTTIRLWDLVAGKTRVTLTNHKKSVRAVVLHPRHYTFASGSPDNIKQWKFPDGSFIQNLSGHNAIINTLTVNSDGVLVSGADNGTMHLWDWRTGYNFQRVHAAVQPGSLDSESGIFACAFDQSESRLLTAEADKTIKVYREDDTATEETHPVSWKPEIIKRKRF
UniProt Q15181: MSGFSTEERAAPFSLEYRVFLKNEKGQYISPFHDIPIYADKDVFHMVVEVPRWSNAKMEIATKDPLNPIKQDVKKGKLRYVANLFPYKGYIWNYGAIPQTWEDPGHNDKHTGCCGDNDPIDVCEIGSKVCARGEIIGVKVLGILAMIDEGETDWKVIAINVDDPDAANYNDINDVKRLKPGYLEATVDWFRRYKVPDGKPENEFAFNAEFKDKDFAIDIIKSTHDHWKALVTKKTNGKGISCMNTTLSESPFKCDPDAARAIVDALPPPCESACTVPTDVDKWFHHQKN
UniProt Q9UNP9: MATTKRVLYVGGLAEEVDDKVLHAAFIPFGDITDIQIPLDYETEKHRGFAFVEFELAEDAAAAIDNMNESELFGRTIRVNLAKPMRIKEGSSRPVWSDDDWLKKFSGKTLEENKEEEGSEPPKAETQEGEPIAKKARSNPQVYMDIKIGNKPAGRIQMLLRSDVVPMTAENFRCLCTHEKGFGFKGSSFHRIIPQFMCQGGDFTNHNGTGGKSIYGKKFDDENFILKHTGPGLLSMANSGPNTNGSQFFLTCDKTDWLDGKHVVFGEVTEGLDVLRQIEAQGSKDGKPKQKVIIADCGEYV
UniProt P05423: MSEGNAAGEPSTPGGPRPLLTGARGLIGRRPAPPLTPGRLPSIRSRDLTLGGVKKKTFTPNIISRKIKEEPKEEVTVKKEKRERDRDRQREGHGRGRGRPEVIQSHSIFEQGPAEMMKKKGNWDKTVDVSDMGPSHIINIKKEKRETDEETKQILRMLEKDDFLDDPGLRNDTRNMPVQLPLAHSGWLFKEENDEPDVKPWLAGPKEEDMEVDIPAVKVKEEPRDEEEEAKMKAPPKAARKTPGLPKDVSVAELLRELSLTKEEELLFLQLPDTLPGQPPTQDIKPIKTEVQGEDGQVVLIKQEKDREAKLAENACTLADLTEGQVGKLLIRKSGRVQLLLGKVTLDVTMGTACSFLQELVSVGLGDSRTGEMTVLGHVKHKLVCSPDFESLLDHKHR
UniProt Q9NRX1: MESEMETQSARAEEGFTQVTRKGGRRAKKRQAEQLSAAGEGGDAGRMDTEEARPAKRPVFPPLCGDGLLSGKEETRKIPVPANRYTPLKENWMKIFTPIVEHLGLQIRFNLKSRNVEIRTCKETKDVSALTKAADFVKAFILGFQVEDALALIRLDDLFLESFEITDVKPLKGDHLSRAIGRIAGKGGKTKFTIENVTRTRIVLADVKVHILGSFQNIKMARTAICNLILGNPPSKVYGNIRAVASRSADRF

Tests used:
Experiment in all cases: log2 fold change, soluble protein after heating vs DMSO (PISA); higher = thermal stabilisation; K562 lysate, 10 uM; active = over 0.2 and 3.5 SD of the protein, either way, in both replicates (recomputed)
erlotinib = compound: C#Cc1cccc(Nc2ncnc3cc(OCCOC)c(OCCOC)cc23)c1 [erlotinib]
How it was run: (§1)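 Dounce homogenisation of K562 pellets in PBS pH 7.4 with 1 mM MgCl2 produced a crude extract, used at 1 mg/mL protein. Exposure to 10 μM compound lasted 30 min, and aliquots were then heated for 3 min across 48°C-58°C, pooled and brought to 0.5% NP-40 at 4°C. The supernatant after 21,000xg for 90 min was quantified by TMTpro 16plex LC-MS/MS with channel sums equalised. Duplicate values are given as log-two fold change in thermal stability relative to solvent controls.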

[1] = compound: C/C(=N\NC(=O)C1=CC(=CC=C1)S(=O)(=O)N2CCOCC2)/C3=C(C=CC(=C3)Cl)O
How it was run: as §1

[2] = compound: C1=CC(=CC=C1C2=NC3=C(N2)C=C(C=C3)C(=O)N)OC4=CC=C(C=C4)Cl
How it was run: as §1

[3] = compound: C1=CC2=C(C=CC(=C2)/C=C\3/C(=O)NC(=NCC4=CC=CS4)S3)N=C1
How it was run: as §1

[4] = compound: C1=CC2=NC=CN=C2C=C1/C=C/3\C(=O)NC(=O)S3
How it was run: as §1

[5] = compound: C1=CC=C(C=C1)C2=NC(=C(N2)C3=CC=NC=C3)C4=CC(=C(C=C4)Cl)O
How it was run: as §1

[6] = compound: C1=CC=C2C(=C1)C3=NNC4=CC=CC(=C43)C2=O
How it was run: as §1

[7] = compound: C1CCN(C1)C(=O)NC2=CC=CC(=C2)NC3=NC=C(C(=N3)NCCC4=CN=CN4)Br
How it was run: as §1

[8] = compound: C1CN(CCC1(CC2=CC=C(C=C2)Cl)N)C3=NC=NC4=C3C=CN4
How it was run: as §1

IRAK-1-4 Inhibitor I = compound: C1COCCN1CCN2C3=CC=CC=C3N=C2NC(=O)C4=CC(=CC=C4)[N+](=O)[O-] [IRAK-1-4 Inhibitor I]
How it was run: as §1

Measured: log2 fold change

POLR3E (UniProt Q9NVU0)
inactive: erlotinib 0.003 | [1] 0.003 | [2] -0.007 | [3] 0.017 | [4] 0.005 | [5] 0.006 | [6] -0.001 | [7] -0.03 | [8] -0.007 | IRAK-1-4 Inhibitor I -0.016

PLIN3 (UniProt O60664)
inactive: erlotinib -0.021 | [1] -0.013 | [2] 0.017 | [3] 0.014 | [4] -0.017 | [5] 0.011 | [6] 0.047 | [7] 0.029 | [8] -0.01 | IRAK-1-4 Inhibitor I 0.014

POFUT2 (UniProt Q9Y2G5)
inactive: erlotinib 0.025 | [1] 0.018 | [2] 0.088 | [3] 0.008 | [4] -0.016 | [5] -0.04 | [6] -0.019 | [7] 0.012 | [8] 0 | IRAK-1-4 Inhibitor I 0.073

POLE4 (UniProt Q9NR33)
inactive: erlotinib -0.024 | [1] -0.319 | [2] 0.049 | [3] 0.02 | [4] -0.014 | [5] 0.013 | [6] -0.067 | [7] -0.018 | [8] 0.091 | IRAK-1-4 Inhibitor I 0.039

POLR3F (UniProt Q9H1D9)
inactive: erlotinib -0.029 | [1] -0.05 | [2] 0.026 | [3] 0.027 | [4] 0.032 | [5] -0.019 | [6] -0.046 | [7] 0.006 | [8] -0.01 | IRAK-1-4 Inhibitor I 0.013

POLR1C (UniProt O15160)
inactive: erlotinib 0.002 | [1] -0.008 | [2] -0.088 | [3] 0 | [4] 0.024 | [5] -0.024 | [6] 0.072 | [7] -0.015 | [8] 0.023 | IRAK-1-4 Inhibitor I -0.04

POLR2F (UniProt P61218)
inactive: erlotinib -0.05 | [1] -0.272 | [2] 0.069 | [3] -0.091 | [4] 0.033 | [5] 0.076 | [6] 0.01 | [7] 0.101 | [8] 0.019 | IRAK-1-4 Inhibitor I -0.052

POM121 (UniProt Q96HA1)
inactive: erlotinib -0.012 | [1] -0.029 | [2] -0.069 | [3] 0.008 | [4] -0.008 | [5] -0.018 | [6] -0.001 | [7] -0.145 | [8] -0.017 | IRAK-1-4 Inhibitor I 0.163

POLR1E (UniProt Q9GZS1)
inactive: erlotinib -0.016 | [1] -0.032 | [2] 0.041 | [3] -0.025 | [4] -0.021 | [5] 0.014 | [6] 0 | [7] 0.007 | [8] -0.025 | IRAK-1-4 Inhibitor I -0.069

PLEKHM2 (UniProt Q8IWE5)
inactive: erlotinib 0.017 | [1] 0.045 | [2] 0.014 | [3] 0.007 | [4] -0.013 | [5] -0.012 | [6] -0.01 | [7] -0.016 | [8] -0.012 | IRAK-1-4 Inhibitor I 0.029

POLE2 (UniProt P56282)
inactive: erlotinib 0.019 | [1] -0.015 | [2] 0.004 | [3] -0.04 | [4] 0.031 | [5] -0.171 | [6] -0.03 | [7] -0.083 | [8] 0.017 | IRAK-1-4 Inhibitor I 0.029

PNPO (UniProt Q9NVS9)
inactive: erlotinib 0.035 | [1] -0.005 | [2] 0.011 | [3] -0.026 | [4] 0.01 | [5] -0.013 | [6] 0.146 | [7] 0.054 | [8] -0.099 | IRAK-1-4 Inhibitor I 0.012

PLXNA3 (UniProt P51805)
inactive: erlotinib 0.223 | [1] -0.276 | [2] 0.068 | [3] -0.346 | [4] 0.068 | [5] 0.004 | [6] 0.155 | [7] -0.11 | [8] -0.036 | IRAK-1-4 Inhibitor I 0.021

PLRG1 (UniProt O43660)
inactive: erlotinib -0.128 | [1] -0.071 | [2] 0.025 | [3] 0.021 | [4] -0.066 | [5] 0.026 | [6] -0.041 | [7] 0.012 | [8] -0.033 | IRAK-1-4 Inhibitor I -0.008

PNPLA8 (UniProt Q9NP80)
inactive: erlotinib 0.03 | [1] 0.156 | [2] -0.212 | [3] -0.015 | [4] 0.022 | [5] -0.03 | [6] 0.038 | [7] 0.085 | [8] -0.077 | IRAK-1-4 Inhibitor I -0.03

POLR3C (UniProt Q9BUI4)
inactive: erlotinib 0.006 | [1] 0.049 | [2] 0.01 | [3] -0.004 | [4] -0.011 | [5] 0.006 | [6] 0.055 | [7] -0.037 | [8] 0.005 | IRAK-1-4 Inhibitor I -0.031

PPA1 (UniProt Q15181)
inactive: erlotinib -0.022 | [1] -0.055 | [2] 0.012 | [3] -0.022 | [4] -0.009 | [5] 0.009 | [6] -0.005 | [7] 0.025 | [8] 0.018 | IRAK-1-4 Inhibitor I 0.008

POC5 (UniProt Q8NA72)
inactive: erlotinib -0.022 | [1] -0.083 | [2] -0.01 | [3] 0.069 | [4] -0.025 | [5] 0.039 | [6] -0.144 | [7] 0.045 | [8] 0.043 | IRAK-1-4 Inhibitor I 0.069

PLGRKT (UniProt Q9HBL7)
inactive: erlotinib 0.029 | [1] 0.086 | [2] -0.09 | [3] 0.052 | [4] 0.026 | [5] 0.005 | [6] -0.146 | [7] -0.072 | [8] 0.014 | IRAK-1-4 Inhibitor I -0.011

PMPCB (UniProt O75439)
inactive: erlotinib -0.034 | [1] 0.013 | [2] -0.016 | [3] 0.032 | [4] 0.029 | [5] -0.088 | [6] -0.03 | [7] -0.01 | [8] 0.003 | IRAK-1-4 Inhibitor I 0

PPIE (UniProt Q9UNP9)
inactive: erlotinib 0.005 | [1] -0.022 | [2] 0.064 | [3] 0.031 | [4] -0.008 | [5] 0.001 | [6] -0.002 | [7] -0.025 | [8] 0.025 | IRAK-1-4 Inhibitor I -0.019

PLOD3 (UniProt O60568)
inactive: erlotinib -0.008 | [1] 0.003 | [2] 0.003 | [3] -0.004 | [4] 0.013 | [5] -0.018 | [6] 0.024 | [7] 0.025 | [8] 0.013 | IRAK-1-4 Inhibitor I -0.014

POLR3D (UniProt P05423)
inactive: erlotinib 0.136 | [1] -0.023 | [2] -0.069 | [3] 0.016 | [4] 0 | [5] 0.007 | [6] -0.011 | [7] -0.016 | [8] -0.037 | IRAK-1-4 Inhibitor I 0.011

POLG (UniProt P54098)
inactive: erlotinib 0.064 | [1] 0.002 | [2] -0.039 | [3] -0.128 | [4] -0.094 | [5] -0.005 | [6] 0.054 | [7] -0.025 | [8] -0.057 | IRAK-1-4 Inhibitor I -0.039

PNO1 (UniProt Q9NRX1)
inactive: erlotinib 0.044 | [1] 0.027 | [2] -0.029 | [3] 0.018 | [4] -0.016 | [5] 0.028 | [6] -0.011 | [7] -0.003 | [8] -0.006 | IRAK-1-4 Inhibitor I 0.041

POLR3A (UniProt O14802)
inactive: erlotinib -0.007 | [1] -0.046 | [2] -0.012 | [3] 0.013 | [4] -0.001 | [5] 0.005 | [6] 0.007 | [7] -0.02 | [8] -0.027 | IRAK-1-4 Inhibitor I -0.008

POLE (UniProt Q07864)
inactive: erlotinib 0.053 | [1] 0.002 | [2] -0.054 | [3] 0.032 | [4] 0.038 | [5] 0.022 | [6] -0.033 | [7] -0.004 | [8] 0.018 | IRAK-1-4 Inhibitor I 0.04
